For three substances, binding results are on record in PMC3973595.

Experiment [1] has as its target T1, monomeric C-reactive protein (mCRP) (human) (UniProt P02741).
T1 sequence: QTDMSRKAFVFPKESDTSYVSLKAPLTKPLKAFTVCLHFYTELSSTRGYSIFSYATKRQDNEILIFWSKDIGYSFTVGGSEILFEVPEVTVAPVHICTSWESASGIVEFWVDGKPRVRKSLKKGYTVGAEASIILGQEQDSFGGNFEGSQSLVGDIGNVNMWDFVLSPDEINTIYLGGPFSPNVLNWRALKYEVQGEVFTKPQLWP
Nature of the experiment: cell adhesion assay; mCRP or pCRP coated on wells, blocked with BSA; CHO cells expressing integrins (10^5 cells/well) for 1 h at 37°C in Tyrode-HEPES buffer with 1 mM MgCl2; bound cells quantified by endogenous phosphatase activity; in some panels with antagonists (mAb 7E3, AIIB2 or SG73 10 μg/ml, cyclic RGDfV 10 μM, BIO1211 1 μM); only the target purified.

In experiment [2] the target is T1, monomeric C-reactive protein (mCRP) (human). Nature of the experiment: cell adhesion assay; mCRP coated at 50 μg/ml; β3-CHO cells for 1 h at 37°C in Tyrode-HEPES buffer with 2 mM cations (Mn2+, Mg2+, Ca2+) or EDTA; only the target purified.
For experiment [3] the target is unchanged. Nature of the experiment: ELISA; mCRP or pCRP coated on wells, blocked with BSA; soluble αvβ3 in Tyrode-HEPES buffer with 1 mM MgCl2 for 2 h (legend: 37°C; methods: room temperature); bound integrin detected with HRP-conjugated anti-His tag IgG; both purified. On the technique in general: An ELISA detects its analyte on a solid surface through an enzyme-linked reagent.

These are yes or no findings as the source states them, for the method shown. A result given as binding can be weak or reduced; the word gives no strength.

Turning to “integrin αvβ3 on β3-CHO cells (hamster αv/human β3 chimera) (receptor)”, the binding result in experiment [1] and in experiment [2] was “binds” throughout.
In the case of “integrin αvβ1-3-1 on β1-3-1-CHO cells (β1-3-1 mutant) (receptor)”, the binding result in experiment [1] was “binds”.
“recombinant soluble integrin αvβ3 (complex)”: the binding result in experiment [3] was “binds”.
